# Measurements published in the supplement of paper PMC10735217.
# Counter-ions that a name gives are not always drawn. This is one part of the list. Single values are uncertain here, since repeats match poorly.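 Human kidney-derived cells stably carry a construct in which eight TEAD-binding elements drive luciferase, measured by luminescence in a drug-repurposing library screen. A hit is any compound whose signal exceeds the plate mean by more than five robust Z scores.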
# Tested on: HEK293A TEAD-LUC reporter
# Test: TEAD-luciferase reporter activity (YAP activation), robust Z score vs plate; higher = stronger YAP/TEAD activation
# Conditions: 24 h
SMILES,TEAD-luciferase reporter activity (compound concentration: 200 nM),TEAD-luciferase reporter activity (compound concentration: 2 uM),TEAD-luciferase reporter activity (compound concentration: 10 uM)
Cc1ccc(Cl)cc1N1CCN(CCCNC(=O)c2ccc3c(c2)NC(=O)C2CCCCN32)CC1 (configuration not stated),inactive: 0.747,inactive: -0.348,inactive: 0.821
Nc1c(CC(=O)O)cccc1C(=O)c1ccccc1 [amfenac sodium],inactive: -1.67,inactive: -1.12,inactive: 1.64
CN(C)Cc1c(C(=O)NCCOc2ccc(C(=O)NO)cc2)oc2ccccc12,active: 13.9,,active: 38.3
CN(C)Cc1c(C(=O)NCCOc2ccc(C(=O)NO)cc2)oc2ccccc12 [abexinostat],,active: 9.66,
CCOC(=O)OC(C)OC(=O)[C@@H]1N2C(=O)[C@@H](/N=C/N3CCCCCC3)[C@H]2SC1(C)C (some centres not stated),inactive: -1.12,inactive: 0.41,inactive: 2.36
CNCCCC12CCC(c3ccccc31)c1ccccc12 [Maprotiline hydrochloride],inactive: 1.39,inactive: -0.484,inactive: -0.189
CCC(=C(c1ccccc1)c1ccc(/C=C/C(=O)O)cc1)c1ccccc1,inactive: -0.814,inactive: 1.13,inactive: 0.494
CC(C)OC(=O)C(C)(C)Oc1ccc(C(=O)c2ccc(Cl)cc2)cc1 [fenofibrate (delayed release)],,inactive: -1.67,
CC(C)OC(=O)C(C)(C)Oc1ccc(C(=O)c2ccc(Cl)cc2)cc1,inactive: 1.52,,inactive: 0.695
"CCCCCCCCCCCCOCCOCCOCCOCCOCCOCCOCCOCCOCCO [polidocanol, BTG]",inactive: -0.56,inactive: -1.44,inactive: -1.47
Cc1cc(-c2cc(O)ccc2Cl)cc2nnc(Nc3ccc(OCCN4CCCC4)cc3)nc12,inactive: 0.0213,inactive: 0.637,inactive: 0.821
O=S1(=O)c2cccc3cccc(c23)N1CCCN1CCN(c2ccc(F)cc2)CC1 [Fananserin],inactive: -1.27,inactive: -1.06,inactive: 4.96
O=C1CCCS(=O)(=O)c2ccc(Cl)cc21,inactive: 0.353,inactive: 0.176,inactive: 0.444
NC(=O)c1ccc(Oc2ccc(CN3CCCC3)cc2F)nc1,inactive: 0.743,inactive: -1.77,inactive: 0.983
CC12CC(=O)C3C(CCC4CC(O)CCC43C)C1CCC2C(=O)CO (configuration not stated),inactive: -0.652,inactive: 2.75,inactive: 1.13
CC[C@@]1(O)C(=O)OCc2c1cc1n(c2=O)Cc2cc3c([N+](=O)[O-])cccc3nc2-1 [rubitecan],inactive: -2.03,inactive: -1.48,inactive: -2.85

# Single records (already shown):
# Nc1c(CC(=O)O)cccc1C(=O)c1ccccc1 [amfenac sodium] as listed: TEAD-luciferase reporter activity (compound concentration: 200 nM): inactive: -1.67; TEAD-luciferase reporter activity (compound concentration: 2 uM): inactive: -1.12; TEAD-luciferase reporter activity (compound concentration: 10 uM): inactive: 1.64
# O=S1(=O)c2cccc3cccc(c23)N1CCCN1CCN(c2ccc(F)cc2)CC1 [Fananserin] as listed: TEAD-luciferase reporter activity (compound concentration: 200 nM): inactive: -1.27; TEAD-luciferase reporter activity (compound concentration: 2 uM): inactive: -1.06; TEAD-luciferase reporter activity (compound concentration: 10 uM): inactive: 4.96
